No constants are given. Whether binding was seen depends on the method and setting. Binding seen in cells or lysates may run through a third protein. These calls come from enrichment with a bait or labelling near it, and not all partners need be listed.
Target: T1, Kelch protein K13 (P. falciparum (endogenous in Cam3.II and CamWT parasites)) (UniProt Q8IDQ2)
T1 sequence: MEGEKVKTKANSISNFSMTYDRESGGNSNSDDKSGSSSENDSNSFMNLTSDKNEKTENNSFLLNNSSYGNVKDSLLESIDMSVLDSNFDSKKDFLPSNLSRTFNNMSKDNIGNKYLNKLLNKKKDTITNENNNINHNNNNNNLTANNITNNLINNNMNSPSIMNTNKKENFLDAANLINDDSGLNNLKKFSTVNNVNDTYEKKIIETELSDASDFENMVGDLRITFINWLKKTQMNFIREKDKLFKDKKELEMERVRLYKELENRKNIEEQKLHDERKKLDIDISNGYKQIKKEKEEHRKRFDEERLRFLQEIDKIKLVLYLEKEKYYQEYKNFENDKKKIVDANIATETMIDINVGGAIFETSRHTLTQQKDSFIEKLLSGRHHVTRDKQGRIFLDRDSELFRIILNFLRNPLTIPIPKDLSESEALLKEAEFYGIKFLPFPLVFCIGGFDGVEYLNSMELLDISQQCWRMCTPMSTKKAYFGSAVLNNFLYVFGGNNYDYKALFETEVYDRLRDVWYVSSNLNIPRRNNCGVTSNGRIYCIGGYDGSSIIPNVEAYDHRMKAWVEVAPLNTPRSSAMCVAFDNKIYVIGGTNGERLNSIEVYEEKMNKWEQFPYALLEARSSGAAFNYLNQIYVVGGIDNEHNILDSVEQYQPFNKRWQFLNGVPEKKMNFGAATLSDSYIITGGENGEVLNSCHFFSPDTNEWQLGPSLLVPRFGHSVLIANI
Assay: affinity purification with mass spectrometry; co-IP with a mix of the K13 mAbs E3 and D9 (2.5 ug each) coupled to Pierce Direct IP columns; 500 ug parasite lysate in Pierce IP Lysis Buffer; cultures enriched in 0-12 hpi rings of Cam3.II (K13 WT, C580Y, R539T) and CamWT (WT, C580Y); eluates by LC-MS/MS; 6 experiments, 13 test samples, 10 negative controls

B1: Phosphoglycerate mutase 1, putative (protein, UniProt Q8IIG6 1-250)
chain: MTTYTLVLLRHGESTWNKENKFTGWTDVPLSEKGEEEAIAAGKYLKEKNFKFDVVYTSVLKRAICTAWNVLKTADLLHVPVVKTWRLNERHYGSLQGLNKSETAKKYGEEQVKIWRRSYDIPPPKLDKEDNRWPGHNVVYKNVPKDALPFTECLKDTVERVLPFWFDHIAPDILANKKVMVAAHGNSLRGLVKHLDNLSEADVLELNIPTGVPLVYELDENLKPIKHYYLLDSEELKKKMDEVANQGKAK
  binding: binds

B2: Thioredoxin peroxidase 2 (protein, UniProt Q8I5Q6 20-216)
chain: SLVTKKAYNFTAQGLNKNNEIINVDLSSFIGQKYCCLLFYPLNYTFVCPTEIIEFNKHIKDFENKNVELLGISVDSVYSHLAWKNMPIEKGGIGNVEFTLVSDINKDISKNYNVLYDNSFALRGLFIIDKNGCVRHQTVNDLPIGRNVQEVLRTIDSIIHVDTSGEVCPINWKKGQKAFKPTTESLIDYMNNANKNV
  binding: binds

B3: Inositol-3-phosphate synthase (protein, UniProt Q8I3Y8 1-604)
chain: METYKGIQFFSNKGTVKNAFKKSNLGYEVMLDRKEDENFIYSNYEHVETQVEKDSKGMVVCKKYKNTYEILVEKVKEKRLGVLLVGIGGNNATTMLGGICANAKDLSYMNKCDLKRSNYLGSVFLSSNIRLGYNEKDKEHAYAPIYKLIDIYNPENIVYGGWDINNMNLKDCLVRNKVFDNEVIEKIKDDLDYVPLKSVYFKGNFIAGNQQRRVNNILYGKNKLEILEQVREQIRNFKKQNNLNELIVLWSGNTEKNIPHIPGVNDTFLNILHACKKNHESVSPSVIYALAAILENSPFINSSPQNTLVSAVVQLAQQKGIFIIGNDLKTGQTKIKNFLLDFYFGTGLKPKSIVSYNHLGNNDGKNLSSDLQFYSKKVSKSNLICDYVRANENLYVDDEKDTNVLVKKSIDYCEGDSLNEKGKVSADIEDDCTYVESLEKQKVNSEIVIKYVPYVGDDKKAIDEYISEIFMNGKNTIVLYNICQDSMLASPILIDLILLVELSQRVFFKPNQEKKTNEDEHLLNENIQIEDYKLSHTILKPKYSSFKNLDSVLFLSSLFCKSPFNSTVYKTRHSFFSQLESLWNFVRIISGLPIDAHIDLPYMI
  binding: binds

B4: Phosphoglycerate kinase (protein, UniProt P27362 1-416)
chain: MLGNKLSISDLKDIKNKKVLVRVDFNVPIENGIIKDTNRITATLPTINHLKKEGASKIILISHCGRPDGLRNEKYTLKPVAETLKGLLGEEVLFLNDCVGKEVEDKINAAKENSVILLENLRFHIEEEGKGVDANGNKVKANKEDVEKFQNDLTKLADVFINDAFGTAHRAHSSMVGVKLNVKASGFLMKKELEYFSKALENPQRPLLAILGGAKVSDKIQLIKNLLDKVDRMIIGGGMAYTFKKVLNNMKIGTSLFDEAGSKIVGEIMEKAKAKNVQIFLPVDFKIADNFDNNANTKFVTDEEGIPDNWMGLDAGPKSIENYKDVILTSKTVIWNGPQGVFEMPNFAKGSIECLNLVVEVTKKGAITIVGGGDTASLVEQQNKKNEISHVSTGGGASLELLEGKELPGVLALSNK
  binding: binds

B5: SEY1 (protein, UniProt Q8ILT5 1-937)
chain: MEKGVEKTQIIDYDGNVIEDLKEWMIDNKLNDLGFSYNVIAVLGSQSSGKSTLLNNLFKTSFDVMNTKQGHSQTTKGLWLSYDKFDDETNNSSSFFKLKKKNKPTLILDVEGTDSKERGDNRLTFEHRSALFCLALADCVIVNLWYHSLGNFTASNYGLLKTVMEVNLELFQQEKNSPKTILLFTVRDWFEEFAPIEVVRNKILDEYINKIWKEMKKPKEAEKLNINNFFIIEVVGLSHGIIKKEDFLKDVNNLRDKWINNLRPSKYSRNIPSDGFAQYCNNIWNTIVKQSQLDIPSQKEMLSTFRCQEIKNNVINNINKEIKEKSIESHNKVIENFKEWAEKNIIQKCLDDYFKDASRYKENICLRTSQELLDYLFTQLQAIVDNNLQYIQRTLCTKFFNELSNMYKICTIEKNTFSFSRDSNLKTVKDNNKNTSHEDIKRDLLNNNQDKCVHLWSNFLYNADKLEYFTFCNFYENYEKSNIEIKTNMKNDDNLKNDDNLKNDAHNNITTHQFNYKPTLSVLSTSIYKDSNRIRNIQCGILLNKTRQTIKNSFKNMDTYLLTTKNTEEYWNNTVQLVLKLQDNINTHLTKCFINLKGTNHNNLNIYNDDMMYNNDDMVFNNNDDDDNNNNNNNNNYYYYNKNDDANLSKDENYNNKFSFSLTNEKGIFQNINNNNEGSDEICYTNALKKIDLIKNKQVYKSTINEDINNKLQNKKYIHELKNYYLDEIMDVLKNKLDEISENLATIIIQRFESVFNYDEYEQPRQWRDISMAELKKIFLKSKNYAFLIIDILQKNIKVELIDDYLPNNFIKDEIIEKGKIKAKRRIQEICRDAQYIQETGSKMSLKNVPVVFWIILLLFGWNEILFFIRMFFKLNVILPLFFAAAFIVSTFVYNGNTQALSYINKIIFYMAKNSYNFFKHIQAISNPPPKNVQKQE
  binding: binds

B6: Hexokinase (protein, UniProt Q02155 1-493)
chain: MSEYDIAKNDVTYTKLDTIECDIPINEELSWRINKFVNQLRISYSTLEEFVDNFVYELKKGLEAHRKHPNLWIPHECSFKMLDSCIANIPTGQEKGTYYAIDFGGTNFRAVRASLDGKGKIKRDQETYSLKFTGSYSHEKGLLDKHATASQLFDHFAERIKYIMGEFNDLDNKEVKSVGFTFSFPCTSPSINCSILIDWTKGFETGRATNDPVEGRDVCKLMNDAFVRAAIPAKVCCVLNDAVGTLMSCAYQKGRGTPPCYIGIILGTGSNGCYYEPEWKKYKYAGKIINIEFGNFDKDLPTSPIDLVMDWYSANRSRQLFEKMISGAYLGEIVRRFMVNVLQSACSKKMWISDSFNSESGSVVLNDTSKNFEDSRKVAKAAWDMDFTDEQIYVLRKICEAVYNRSAALARGTIAAIAKRIKIIEHSKFTCGVDGSLFVKNAWYCKRLQEHLKVILADKAENLIIIPADDGSGKGAAITAAVIALNADIPQLP
  binding: binds

B7: Pyruvate kinase 2 (protein, UniProt Q8IJ37 1-745)
chain: MNLIHICLFIIVIKCYVNCIKKNNKHIAYDKFYKQGSNTIVGSGNGSGDLLFLNNININKNVERKKNILAHSEIGTVRNIDDINLLNHNKKNEISFTKCKQIATIGPASENFEQLEKLYLNGIDVFRLNFSHGLKSIKKYIINSIRILEKKYDTTIGILGDIQGPKIRIGEFEKNQINENDNNTFVELKEGDLFSFDLMNSLGNQNRVQLNYPELIKNAKAGQIILLDDGNLKMKILENNYDTSNIQNSYIKVQVLTGGKLYSKKGFCIPNMIMPIDVLSEKDIKDILFCINEEVDFLGYSFVQTEYDLIFLRNIINDYYESDFYNNIKRKDRINFDQNNLQMKTFDDENDFYIKEVNDYYNNYYLKNVQKYKQIYDVYKNQDLYINDNIQNHYNKNIVTNIGDDKNIIDEQHIHNNNNNNIDNIMKNYSNLYNINKDHNKIAIISKIEKPSAIKNIENIIKLSDGIMIARGDLGIETNLSNLPILQKKLINLCRIKYNKPVIVATQMMESMRFLPSPTRAEVTDVATALYDGSDCVMLSAETATGQYPILTVSTQNKIIKDVENDYYYYEYTQRKNDKLKMLDHKNNCCHENKDIQQINKYNHEYIQNNKYEQDIQNNISYFDKLIFSIRDISNNINLKSIILFSNEFNKIQKLSNLRTKAPIIVITENKYLARKLQLTWGIYPHLSKKQNLFNHDLFSLINYGCDVSKKEGFVNSPDEYSLVTFSKNINSANLLYLCQPCLTN
  binding: binds

B8: Pyruvate kinase (protein, UniProt C6KTA4 1-511)
chain: MSSFKYKNSAAGASMQSAANITLRQILEPNNVNLRSKKTHIVCTLGPACKSVETLVKLIDAGMDICRFNFSHGSHEDHKEMFNNVLKAQELRPNCLLGMLLDTKGPEIRTGFLKNKEVHLKEGSKLKLVTDYEFLGDETCIACSYKKLPQSVKPGNIILIADGSVSCKVLETHEDHVITEVLNSAVIGERKNMNLPNVKVDLPIISEKDKNDILNFAIPMGCNFIAASFIQSADDVRLIRNLLGPRGRHIKIIPKIENIEGIIHFDKILAESDGIMIARGDLGMEISPEKVFLAQKLMISKCNLQGKPIITATQMLESMTKNPRPTRAEVTDVANAVLDGTDCVMLSGETAGGKFPVEAVTIMSKICLEAEACIDYKLLYQSLVNAIETPISVQEAVARSAVETAESIQASLIIALTETGYTARLIAKYKPSCTILALSASDSTVKCLNVHRGVTCIKVGSFQGTDIVIRNAIEIAKQRNMAKVGDSVIAIHGIKEEVSGGTNLMKVVQIE
  binding: binds

B9: Ornithine aminotransferase (protein, UniProt Q6LFH8 1-414)
chain: MDFVKELKSSQDYMNNELTYGAHNYDPIPVVLKRGKGVFVYDIEDRRYYDFLSAYSSVNQGHCHPDILNAMINQAKKLTICSRAFFSDSLGVCERYLTNLFGYDKVLMMNTGAEASETAYKLCRKWGYEVKKIPENSAKIIVCNNNFSGRTLGCVSASTDKKCKNNFGPFVPNFLKVPYDDLEALEKELQDPNVCAFIVEPVQGEAGVIVPSDSYFPGVASLCKKYNVLFVADEVQTGLGRTGKLLCTHHYGVKPDVILLGKALSGGHYPISAILANDDVMLVLKPGEHGSTYGGNPLAAAICVEALKVLINEKLCENADKLGAPFLQNLKEQLKDSKVVREVRGKGLLCAIEFKNDLVNVWDICLKFKENGLITRSVHDKTVRLTPPLCITKEQLDECTEIIVKTVKFFDDNL
  binding: binds

B10: Receptor for activated c kinase (protein, UniProt Q8IBA0 1-323)
chain: MMDNIKEAEISLRGVLEGGHSDWVTSVSTPTDPKLKTIVSASRDKKLIVWNINTDDDSGEIGTAKKSLTGHSQAINDVSISSDGLFALSGSWDHSVRLWDLSLGETIRSFIGHTSDVFSVSFSPDNRQIVSASRDKTIKLWNTLAQCKYTITDQQHTDWITCVRFSPSPNQAIIVSCGWDKLVKVWNLKNCDLNKNLEGHTGVLNTVTISPDGSLCASGGKDGVAKLWDVKEGKHLYSLETGSTINSLCFSPCDYWLCAATDRFIRIWNLESKLIISEIYPVKQSKIGVPWCTSLTWSANGQLLYCGSTDGNIYVYEVKKHSV
  binding: binds
